The conditions of data set [1]: i.v.
Data set [2] deals with mice with polymicrobial peritonitis and sepsis caused by CLP. The following applies: 30 mg/kg twice a day for two days.
Data set [3] relates to LPS-treated C57BL/6 mice.
For data set [4], the system named is mice injected with heat-killed Salmonella typhimurium. The conditions noted are these: 30 mg/kg before heat-killed Salmonella typhimurium (5×10^9/kg i.v.).

Read-outs that look alike come from different tables or passages of the source.

As for `CCNC(=O)C[C@@H]1N=C(c2ccc(Cl)cc2)c2cc(OC)ccc2-n2c(C)nnc21` [I-BET], the “serum titres after injection” value in data set [1] is “remain within the effective concentrations for several hours”. Besides, the survival entry in data set [2] is given as “protected mice against death”; in data set [3] (30 mg/kg i.v. 1 hour before LPS (5 mg/kg i.p.)) it was “prevent or attenuate death”; in data set [3] (single dose 30 mg/kg i.v. 1.5 hours after LPS (5 mg/kg i.p.)), “cured the mice”; in data set [4], “prevent or attenuate death”.

Values taken from article PMC5415086 (Nature, 2010).
